# Among all 360,000 compounds or so, about 7,500 (2.1%) were called active. Inconclusive results, whose numbers are uncertain, are shown with a selection of clear calls. Calls follow the shape of the dose curve; as a rule, active = well fitted inhibition curve with a large enough effect; inconclusive = small, poorly fitted or top-dose-only effect, or effect the other way; inactive = flat fitted curve, though single readings scatter. Where the call is inconclusive, the potency comes from a doubtful curve fit.
# Test: Nrf2 qHTS screen for inhibitors; also: nearly all actives have a fitted effect of over 60% in size
# Conditions: A549 ARE-Fluc reporter, luciferase luminescence, 18-24 h; series mostly up to 46 µM
# Summary of the method: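 In this cell-based qHTS, ARE-driven firefly luciferase in A549 cells reports Nrf2 activity; the luminescent signal after BugLite lysis is the measured value, with a prior CellTiter-Fluor read for cell health.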
# Potency is read from the fitted curve at half-maximal effect.
row,Compound,Potency
1,COc1ccc(-n2nc(C(=O)NCC(=O)N3CCCCCC3)c3ccccc3c2=O)cc1OC,"inconclusive: 0.0517 µM [falling, full curve, poor fit]"
2,COc1cccc(C(=O)NNC(=O)c2cccnc2)c1,"inconclusive: 29.1 µM [activator, partial curve, poor fit]"
3,Cc1nc2ccccn2c1C(=O)N/N=C/c1cc(C)n(-c2ccc(Cl)cc2)c1C,"inconclusive: 23.1 µM [falling, partial curve]"
4,Cc1cc(=O)oc2cc(OCC3CC(c4ccc(Cl)cc4)=NO3)ccc12 (stereo not given),"inconclusive: 8.2 µM [falling, partial curve, poor fit]"
5,Cc1nc2cc(-c3cccc(F)c3)nn2c(N2CCN(C(=O)c3ccco3)CC2)c1C,inactive
6,CC(C)NS(=O)(=O)c1ccc(Oc2ncc(C(F)(F)F)cc2Cl)cc1,"inconclusive: 23.1 µM [falling, single point]"
7,COc1ccccc1COn1c(=O)c(-c2ccco2)[n+]([O-])c2ccccc21,inactive
8,CCOC(=O)N1CCc2cc(OC)c(OC)c3c2c1cc1cc(OC)c(OC)cc13,"inconclusive: 10.3 µM [falling, partial curve]"
9,CC1Cc2cc(S(=O)(=O)NCc3ccccc3)ccc2N1C(=O)C1CCC1 (stereo not given),active: 1.64 µM
10,Cc1ccc(C(C)C)c(OCc2nn(CC(=O)c3ccc(Cl)cc3)c3[n+]2CCCCC3)c1,"inconclusive: 25.9 µM [falling, single point]"
11,CCOC(=O)c1c(NC(=O)C2(C)Cc3ccccc3C(=O)O2)sc2c1CCCC2 (stereo not given),"inconclusive: 18.4 µM [falling, partial curve]"
12,C/C=C/C=C/C(=O)Nc1nccs1,"inconclusive: 8.2 µM [activator, partial curve]"
13,COc1ccc(C(=O)O)cc1S(=O)(=O)Nc1ccc(Oc2ccccc2)cc1,inactive
14,O=S(=O)(c1ccccc1)N1CCC(N2CCCCCC2)CC1,inactive
15,CC1=C(C(=O)OC2CCCCCC2)C(c2ccc(Cl)cc2Cl)CC(=O)N1 (stereo not given),"inconclusive: 3.26 µM [falling, partial curve, poor fit]"
16,Cc1cc2c(cc1C)NC(C)CC(=O)N2 (stereo not given),"inconclusive: 32.6 µM [activator, partial curve, poor fit]"
17,Cc1ccc(NC(=O)CNC(=O)c2ccco2)cc1Cl,"inconclusive: 18.4 µM [activator, single point]"
18,CCOC(=O)c1c(NC(=O)c2cc(C)oc2C)sc(C(=O)Nc2ccc(Cl)cc2)c1C,"inconclusive: 17.8 µM [activator, single point]"
19,CC[C@H](C)C(=O)O[C@H]1CCC=C2C=C[C@H](C)[C@H](CC[C@@H]3C[C@@H](O)CC(=O)O3)[C@H]21,"inconclusive: 18.4 µM [activator, single point]"
20,C/C(=N/Nc1nc(C)cc(C)n1)c1ccc(Br)cc1,"inconclusive: 7.31 µM [falling, partial curve]"
21,COCCCNC(=O)c1ccc(-n2c(-c3ccccc3)cc3c2CCCCC3)cc1,"inconclusive: 32.6 µM [falling, single point]"
22,O=[N+]([O-])c1ccccc1C1Nc2cccc3cccc(c23)N1,inactive

row,Compound,Potency
1,CC(Sc1ncn[nH]1)C(=O)Nc1cc(C(F)(F)F)ccc1Cl (stereo not given),"inconclusive: 25.9 µM [falling, partial curve, poor fit]"
2,COCCn1c(C)cc(C2=NNC(=NC(C)(C)C)SC2)c1C,"inconclusive: 29.1 µM [activator, single point]"
3,CN(CCc1ccccc1)C(=O)c1cc(COc2ccc(F)cc2Cl)on1,"inconclusive: 5.17 µM [activator, full curve]"
4,CCOC(=O)c1cc(OC(=O)c2cc(OC)cc(OC)c2)n(-c2ccccc2)n1,inactive
5,CC(=O)c1ccc(C(=O)N(CCN(C)C)c2nc3c(Cl)cccc3s2)cc1,"inconclusive: 29.1 µM [activator, single point]"
6,O=C(CN(Cc1ccco1)C(=O)Cn1nnc(-c2ccc(F)cc2)n1)NC1CCCC1,inactive
7,CCOCCn1c(SCCCc2ccccc2)nc2c1c(=O)[nH]c(=O)n2C,"inconclusive: 29.1 µM [falling, single point]"
8,Cn1c(=O)c(Nc2ccc(O)cc2)c2c3c(cccc31)C(=O)c1ccccc1-2,"inconclusive: 29.1 µM [falling, partial curve, poor fit]"
9,CCCn1c(-c2ccc(OC)cc2)nc2ccccc21,"inconclusive: 29.1 µM [falling, single point]"
10,CC(C)(O)C(=O)N=Nc1c(O)[nH]c2ccccc12,"inconclusive: 7.31 µM [activator, partial curve]"
11,Clc1cccc(Cl)c1C1=NOC(c2nnc(-c3ccccc3)o2)C1 (stereo not given),"inconclusive: 20.6 µM [activator, partial curve]"
12,CC(Oc1ccc(Br)cc1)C(=O)Nc1ccc(S(=O)(=O)NC2=NCCCCC2)cc1 (stereo not given),"inconclusive: 29.1 µM [falling, single point]"
13,CCc1c(C)sc(NC(=O)Cn2nc(C(F)(F)F)c3c2CCCC3)c1C#N,"inconclusive: 25.9 µM [falling, partial curve, poor fit]"
14,O=S(=O)(N/N=C/c1ccc(Cl)cc1)c1ccc(Cc2ncc(C(F)(F)F)cc2Cl)s1,"inconclusive: 7.31 µM [falling, partial curve, poor fit]"
15,Cc1c(S(=O)(=O)N2CCC(C)CC2)c(=O)n(C)c(=O)n1C,inactive
16,Cc1ccc(C(=O)Nc2cccc(C(F)(F)F)c2)cc1NC(=O)c1csc(-c2ccncc2)n1,"inconclusive: 7.31 µM [falling, partial curve, poor fit]"
17,O=C1CC(c2ccccc2)(c2ccccc2)c2ccccc21,"inconclusive: 20.6 µM [falling, single point]"
18,Cc1ccc(-c2ccc(CCC(=O)O)n2-c2ccc(C)c(Cl)c2)cc1,inactive
19,O=C(N/N=C\C=C\c1ccco1)c1cc(-c2ccc3ccccc3c2)n[nH]1,"inconclusive: 5.8 µM [falling, full curve, poor fit]"
20,CC(C)CNC(=S)NC(=O)c1csc([N+](=O)[O-])c1,"inconclusive: 0.206 µM [activator, full curve, poor fit]"
21,CCC1CCCCN1CC(=O)Nc1ccc2c(c1)OCCO2 (stereo not given),"inconclusive: 23.1 µM [activator, single point]"
22,CC(C)C[C@H](NC(=O)OC(C)(C)C)c1nnc(SCC(=O)Nc2ccc(Br)cc2)o1,"inconclusive: 1.16 µM [falling, partial curve, poor fit]"

row,Compound,Potency
1,O=S(=O)(c1ccccc1Cl)N1CCCC1c1nc(-c2ccc(Cl)cc2)no1 (stereo not given),active: 5.8 µM
2,Cc1nnc(N2C(=O)c3ccc(Br)cc3C2=O)s1,"inconclusive: 32.6 µM [activator, partial curve, poor fit]"
3,CCN(CCCNC(=O)COc1cc(=O)n(CC)c2ccccc12)c1ccccc1,"inconclusive: 18.4 µM [falling, partial curve, poor fit]"
4,Cc1ccc(NC(=O)C2CCCN(S(=O)(=O)c3ccc4c(c3)CCCC(=O)N4)C2)cc1N(C)C (stereo not given),active: 16.4 µM
5,Cc1ccc2cc(CN(CC3CCCO3)C(=O)NC3CCCCC3)c(=O)[nH]c2c1C (stereo not given),"inconclusive: 23.1 µM [falling, single point]"
6,CCOc1ccccc1-n1nnnc1SCC(=O)NC(=O)Cc1ccccc1,inactive
7,C[C@H](CO)N1C[C@H](C)[C@@H](CN(C)Cc2ccccc2)Oc2c(NC(=O)c3ccncc3)cccc2C1=O,inactive
8,Cn1c(SCC(=O)Nc2ccccc2)nc2c([nH]c3ccccc32)c1=O,"inconclusive: 18.4 µM [falling, single point]"
9,Cc1ccc(NC(=O)CN(C)C(=O)COc2c(Cl)cc(Cl)c3ccc(C)nc23)cc1,"inconclusive: 18.4 µM [falling, partial curve, poor fit]"
10,c1ccc(-c2nnc(-c3ccccn3)c(-c3ccccn3)n2)nc1,inactive
11,c1ccc(-c2cc3cc4c(cc3cn2)OCO4)cc1,"inconclusive: 5.8 µM [activator, full curve]"
12,COc1cccc(N/C=C/C(=O)c2ccc(Cl)cc2)c1,"inconclusive: 2.31 µM [activator, full curve]"
13,Nc1nc(-c2cccc(NS(=O)(=O)c3ccccc3)c2)cs1,"inconclusive: 25.9 µM [falling, single point]"
14,CN(C(=O)CSc1nc2ccc(NC(=O)c3cccs3)cc2s1)c1ccccc1,"inconclusive: 18.4 µM [falling, single point]"
15,Clc1ccc(CN2CCN(c3ncnc4scc(-c5cccs5)c34)CC2)cc1,"inconclusive: 18.4 µM [falling, single point]"
16,COC(=O)Cc1ccc(NC(=S)Nc2cccc(C)n2)cc1,"inconclusive: 29.1 µM [falling, single point]"
17,COc1ccc2[nH]c3c(c2c1)CCN1C(=O)C(CC(=O)NCc2cccc(C(F)(F)F)c2)C[C@H](C(=O)N2CCCCC2)[C@@]31CCc1ccccc1 (stereo not given in full),active: 6.51 µM
18,COc1ccc(OC)c(NC(=O)c2cc3c(Cl)nc4ccccc4c3s2)c1,inactive
19,CCCCCCc1cc2cc(-c3nnc(-c4ccccc4OC)o3)c(=O)oc2cc1O,"inconclusive: 23.1 µM [falling, single point]"
20,COC(=O)c1cccc(CN2C(=O)SC(Nc3ccccc3C)C2=O)c1 (stereo not given),"inconclusive: 6.51 µM [activator, partial curve, poor fit]"
21,COc1ccc(CC(=O)O/N=C(\N)c2ccc(C)cc2)cc1,"inconclusive: 23.1 µM [activator, partial curve]"

# Reprinted at random: four entries already listed.
row,Compound,Potency
18,CCOC(=O)c1c(NC(=O)c2cc(C)oc2C)sc(C(=O)Nc2ccc(Cl)cc2)c1C,"inconclusive: 17.8 µM [activator, single point]"
20,C/C(=N/Nc1nc(C)cc(C)n1)c1ccc(Br)cc1,"inconclusive: 7.31 µM [falling, partial curve]"
1,O=S(=O)(c1ccccc1Cl)N1CCCC1c1nc(-c2ccc(Cl)cc2)no1 (stereo not given),active: 5.8 µM
20,COC(=O)c1cccc(CN2C(=O)SC(Nc3ccccc3C)C2=O)c1 (stereo not given),"inconclusive: 6.51 µM [activator, partial curve, poor fit]"

# From PubChem BioAssay AID504444 (National Center for Advancing Translational Sciences (NCATS), 2011)
